From patent US10864252B2, “Anti-SSX-2 T cell receptors and related materials and methods of use” (The United States of America, as represented by the …, priority 2010, dated 2020)

B1: SSX2-TCR-MCR: codon-optimized human/mouse chimeric anti-SSX-2 TCR with mouse constant region, encoded by SEQ ID NO: 30, tested as transduced human PBLs (protein)
chain: MALSSLLKVVTASLWLGPGIAQKITQTQPGMFVQEKEAVTLDCTYDTSDPSYGLFWYKQPSSGEMIFLIYQGSYDQQNATEGRYSLNFQKARKSANLVISASQLGDSAMYFCAMTSGFGNEKLTFGTGTRLTIIPNDIQNPEPAVYQLKDPRSQDSTLCLFTDFDSQINVPKTMESGTFITDKTVLDMKAMDSKSNGAIAWSNQTSFTCQDIFKETNATYPSSDVPCDATLTEKSFETDMNLNFQNLSVMGLRILLLKVAGFNLLMTLRLWSSRAKRSGSGATNFSLLKQAGDVEENPGPMGPGLLHWMALCLLGTGHGDAMVIQNPRYQVTQFGKPVTLSCSQTLNHNVMYWYQQKSSQAPKLLFHYYDKDFNNEADTPDNFQSRRPNTSFCFLDIRSPGLGDAAMYLCATSRGQGGQPQHFGDGTRLSILEDLRNVTPPKVSLFEPSKAEIANKQKATLVCLARGFFPDHVELSWWVNGKEVHSGVSTDPQAYKESNYSYCLSSRLRVSATFWHNPRNHFRCQVQFHGLSEEDKWPEGSPKPVTQNISAEAWGRACGITSSYQQGVLSATILYEILLGKATLYAVLVSTLVVMAMVKRKNS
B2: SSX2-TCR-WT: HLA-A2 restricted anti-SSX-2 TCR alpha and beta chains encoded by SEQ ID NO: 27, tested as transduced human PBLs (protein)
chain: MSLSSLLKVVTASLWLGPGIAQKITQTQPGMFVQEKEAVTLDCTYDTSDPSYGLFWYKQPSSGEMIFLIYQGSYDQQNATEGRYSLNFQKARKSANLVISASQLGDSAMYFCAMTSGFGNEKLTFGTGTRLTIIPNIQNPDPAVYQLRDSKSSDKSVCLFTDFDSQTNVSQSKDSDVYITDKTVLDMRSMDFKSNSAVAWSNKSDFACANAFNNSIIPEDTFFPSPESSCDVKLVEKSFETDTNLNFQNLSVIGFRILLLKVAGFNLLMTLRLWSSRAKRSGSGATNFSLLKQAGDVEENPGPMGPGLLHWMALCLLGTGHGDAMVIQNPRYQVTQFGKPVTLSCSQTLNHNVMYWYQQKSSQAPKLLFHYYDKDFNNEADTPDNFQSRRPNTSFCFLDIRSPGLGDAAMYLCATSRGQGGQPQHFGDGTRLSILEDLNKVFPPEVAVFEPSEAEISHTQKATLVCLATGFFPDHVELSWWVNGKEVHSGVSTDPQPLKEQPALNDSRYCLSSRLRVSATFWQNPRNHFRCQVQFYGLSENDEWTQDRAKPVTQIVSAEAWGRADCGFTSVSYQQGVLSATILYEILLGKATLYAVLVSALVLMAMVKRKDF
B3: SSX2-TCR-Co Op: codon-optimized anti-SSX-2 TCR alpha and beta chains encoded by SEQ ID NO: 29, tested as transduced human PBLs (protein)
chain: MALSSLLKVVTASLWLGPGIAQKITQTQPGMFVQEKEAVTLDCTYDTSDPSYGLFWYKQPSSGEMIFLIYQGSYDQQNATEGRYSLNFQKARKSANLVISASQLGDSAMYFCAMTSGFGNEKLTFGTGTRLTIIPNIQNPDPAVYQLRDSKSSDKSVCLFTDFDSQTNVSQSKDSDVYITDKTVLDMRSMDFKSNSAVAWSNKSDFACANAFNNSIIPEDTFFPSPESSCDVKLVEKSFETDTNLNFQNLSVIGFRILLLKVAGFNLLMTLRLWSSRAKRSGSGATNFSLLKQAGDVEENPGPMGPGLLHWMALCLLGTGHGDAMVIQNPRYQVTQFGKPVTLSCSQTLNHNVMYWYQQKSSQAPKLLFHYYDKDFNNEADTPDNFQSRRPNTSFCFLDIRSPGLGDAAMYLCATSRGQGGQPQHFGDGTRLSILEDLNKVFPPEVAVFEPSEAEISHTQKATLVCLATGFFPDHVELSWWVNGKEVHSGVSTDPQPLKEQPALNDSRYCLSSRLRVSATFWQNPRNHFRCQVQFYGLSENDEWTQDRAKPVTQIVSAEAWGRADCGFTSVSYQQGVLSATILYEILLGKATLYAVLVSALVLMAMVKRKDF

Test system: Human PBL
Experiment: TCR expression in transduced PBL by FACS
Format: cell-based
Settings: FACS analysis of transduced human PBL
Experimental: Human PBL were untransduced or transduced with a vector comprising SEQ ID NO: 27 (SSX-2 TCR), SEQ ID NO: 29 (codon-optimized SSX-2 TCR), or SEQ ID NO: 30 (codon-optimized SSX-2 TCR including mouse constant region). Expression was measured by FACS analysis. Mean fluorescence intensity was measured to be 656 for cells transduced with SEQ ID NO: 27 (SSX-2 TCR), 910 for cells transduced with SEQ ID NO: 29 (codon-optimized SSX-2 TCR), and 949 for cells transduced with SEQ ID NO: 30 (codon-optimized SSX-2 TCR including mouse constant region).

Molecule | Mean fluorescence intensity (TCR expression)
B1 | 949
B2 | 656
B3 | 910
